Reference: patent publication US20250136687A1
No constants are given. Whether binding was seen depends on the method and setting. Some entries that bind do so weakly or less than the wild type.

By UniProt entry, the sequences of proteins in these tests, tags left out. Residues count along the entry.
UniProt Q95LI5, residues 22-117: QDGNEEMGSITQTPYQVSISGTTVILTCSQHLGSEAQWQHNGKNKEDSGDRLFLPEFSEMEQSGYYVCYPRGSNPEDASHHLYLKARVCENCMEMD

Target: monkey CD3ε protein (monkey) (UniProt Q95LI5)
Assay: ELISA, coated antigen

| Binder | binding |
| --- | --- |
| 1-22.6-1-H2a-L2a humanized antibody (antibody, human IgG1, kappa, V domains shown) VH: EVQLVQSGSELKKPGASVKVSCKTSGYTFTSYGMSWVRQAPGQGLEWMGWINTYSGVPTYAQDFKGRFVFSLDTSVSTAYLQISSLKAEDTAVYYCARLKNNPFVWGQGTTVTVSS VL: DIVMTQSPDSLAVSLGERATINCRSSQLILHSSGNTYLEWYQQKPGQSPKLLIYKVSNRFSGVPDRFSGSGSGTDFTLTISSLQAEDVAVYYCFQGSHFPWTFGGGTKVEIKR | binds |
| 5-7.13-H1a-L2 humanized antibody (antibody, human IgG1, kappa, V domains shown) VH: EVQLVQSGAEVKKPGASVKVSCKASGYTFTSYWVHWVRQAPGQRLEWMGNINPSDGVTNYNEKFKSRVTITVDKSASTAYMELSSLRSEDTAVYYCTRDAYGQYYFDNWGQGTTVTVSS VL: DIVMTQTPLSLPVTPGEPASISCKSSQSLLNSRTRKNYLAWYLQKPGQSPQLLIYWASVRDSGVPDRFSGSGSGTDFTLKISRVEAEDVGVYYCIQSYYLRTFGGGTKVEIKR | binds |
| 5-40.21-H3-L1 humanized antibody (antibody, human IgG1, kappa, V domains shown) VH: EVQLVQSGAEVKKPGASVKVSCKASGYTFTSYWMHWVRQAPGQGLEWMGNTYPGSGSTNYDEKFKSRVTITVDSSASTAYMELSSLRSEDTAVYYCTRDRYGVYYFDYWGQGTTVTVSS VL: DIVMTQSPDSLAVSLGERATINCKSSQSLLNSRTRKNYLAWYQQKPGQSPKLLIYWASTRESGVPDRFSGSGSGTDFTLTISSLQAEDVAVYYCTQSYNLRTFGGGTKVEIKR | binds |
| 6-44.5-H1-L2 humanized antibody (antibody, human IgG1, kappa, V domains shown) VH: EVQLVQSGAEVKKPGSSVKVSCKASGHTFSSHIMHWVRQAPGQGLEWMGYINPNNDRTEYSEKFKGRVTITADKSTSTAYMELSSLRSEDTAVYYCAGEAYYSNSLYAMDYWGQGTTVTVSS VL: DIVMTQSPDSLAVSLGERATINCKSSQSLFNSRTRKNYLAWYQQKPGQSPKLLIYWASTRESGVPDRFSGSGSGTDFTLTISSLQAEDVAVYYCKQSYYLRTFGGGTKVEIKR | binds |
| 7-35.6-H2-L3 humanized antibody (antibody, human IgG1, lambda, V domains shown) VH: EVQLVESGGGLVQPGGSLKLSCAASGFTFNTYAMNWVRQASGKGLEWVGRIRSKINNYATYYGDSVKDRFTISRDDSKNTFYLQMNSLKTEDTAVYYCVIHENYGSISWFAYWGQGTLVTVSS VL: ETVVTQEPSLTVSPGGTVTLTCRSSTGAVTTSNYANWVQQKPGQAFTGLIGGTNNRAPWTPARFSGSLLGGKAALTLSGVQPEDEAEYYCALWYSNHWVFGGGTKLTVLG | binds |
| 8-18.1-H1-L2 humanized antibody (antibody, human IgG1, kappa, V domains shown) VH: EVQLVQSGAEVKKPGASVKVSCKASGYTFTMNTMHWVRQAPGQRLEWMGYINPYSGYTKYNQIFKDRVTITADKSASTAYMELSSLRSEDTAVYYCLRGGEGVWGQGTTVTVSS VL: DVVMTQSPLSLPVTLGQPASISCKSSQSLLDSDGKTYLNWLQQRPGQSPRRLIYLVSELGSGVPDRFSGSGSGTDFTLKISRVEAEDVGVYYCWQGTHFPRTFGGGTKVEIKR | binds |
